Assay results taken from paper PMC5241286.
No constants are given. Whether binding was seen depends on the method and setting. Some binding calls cover weakened binding; strength is not graded here.

Target: T1, Mia40 (mitochondrial intermembrane space import and assembly protein 40) (yeast (endogenous in purified yeast mitochondria)) (UniProt P36046)
T1 sequence: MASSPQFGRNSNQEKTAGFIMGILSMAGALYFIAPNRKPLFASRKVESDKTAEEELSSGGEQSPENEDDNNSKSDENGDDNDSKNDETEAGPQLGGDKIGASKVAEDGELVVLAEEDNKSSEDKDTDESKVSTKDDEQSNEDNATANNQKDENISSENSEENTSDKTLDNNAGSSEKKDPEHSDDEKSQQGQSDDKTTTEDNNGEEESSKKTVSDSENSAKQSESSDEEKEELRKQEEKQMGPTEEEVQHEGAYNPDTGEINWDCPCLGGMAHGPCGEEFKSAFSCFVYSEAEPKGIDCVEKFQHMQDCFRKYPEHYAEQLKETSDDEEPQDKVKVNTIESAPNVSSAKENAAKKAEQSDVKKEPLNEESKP
Test: non-reducing SDS-PAGE and autoradiography of a disulfide-linked intermediate after import into mitochondria; in organello; radiolabeled Cmc1 translation mix added to purified yeast mitochondria (100 ug/mL) in import buffer at 25°C with 1% DMSO, auranofin, MB-6 or MB-7; stopped with 20 mM iodoacetamide; Laemmli buffer without beta-mercaptoethanol

B1: Cmc1 (protein, UniProt P36064 1-111)
chain: MEQNKDPQMISKHSSRLPIWVLSPREEQQARKNLKTETYKKCANFVQAMADCAKANGMKVFPTCDKQRDEMKSCLLFYQTDEKYLDGERDKIVLEKINKLEKLCQKQSSTK
modifications: [35S]-methionine and cysteine labeled
  binding: binds
